According to PMC10123111:
No constants are given. Whether binding was seen depends on the method and setting. For some assays here: In cells and extracts the contact can be indirect. Some results given as binding are weak or reduced against the parent protein; the word gives no strength.

The chains behind the UniProt entries cited, without tags or fusion partners. Where a name states a change or a piece, a line headed by the entry shows the natural chain unless it says otherwise. Residues count along the entry.
UniProt Q92466: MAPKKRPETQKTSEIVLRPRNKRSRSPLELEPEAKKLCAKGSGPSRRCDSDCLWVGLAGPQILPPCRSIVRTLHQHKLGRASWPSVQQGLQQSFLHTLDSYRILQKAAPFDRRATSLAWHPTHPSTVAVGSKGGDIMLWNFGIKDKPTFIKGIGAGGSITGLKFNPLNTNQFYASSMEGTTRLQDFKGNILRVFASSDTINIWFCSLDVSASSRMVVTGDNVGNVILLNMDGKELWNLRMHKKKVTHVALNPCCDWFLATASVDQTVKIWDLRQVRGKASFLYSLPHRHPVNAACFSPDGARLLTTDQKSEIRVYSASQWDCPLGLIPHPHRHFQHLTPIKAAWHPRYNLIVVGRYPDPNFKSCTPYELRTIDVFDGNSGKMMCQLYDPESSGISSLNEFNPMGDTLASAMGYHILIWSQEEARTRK
DDB2-mCherry: residues 2-419 of Q92466
UniProt Q16531: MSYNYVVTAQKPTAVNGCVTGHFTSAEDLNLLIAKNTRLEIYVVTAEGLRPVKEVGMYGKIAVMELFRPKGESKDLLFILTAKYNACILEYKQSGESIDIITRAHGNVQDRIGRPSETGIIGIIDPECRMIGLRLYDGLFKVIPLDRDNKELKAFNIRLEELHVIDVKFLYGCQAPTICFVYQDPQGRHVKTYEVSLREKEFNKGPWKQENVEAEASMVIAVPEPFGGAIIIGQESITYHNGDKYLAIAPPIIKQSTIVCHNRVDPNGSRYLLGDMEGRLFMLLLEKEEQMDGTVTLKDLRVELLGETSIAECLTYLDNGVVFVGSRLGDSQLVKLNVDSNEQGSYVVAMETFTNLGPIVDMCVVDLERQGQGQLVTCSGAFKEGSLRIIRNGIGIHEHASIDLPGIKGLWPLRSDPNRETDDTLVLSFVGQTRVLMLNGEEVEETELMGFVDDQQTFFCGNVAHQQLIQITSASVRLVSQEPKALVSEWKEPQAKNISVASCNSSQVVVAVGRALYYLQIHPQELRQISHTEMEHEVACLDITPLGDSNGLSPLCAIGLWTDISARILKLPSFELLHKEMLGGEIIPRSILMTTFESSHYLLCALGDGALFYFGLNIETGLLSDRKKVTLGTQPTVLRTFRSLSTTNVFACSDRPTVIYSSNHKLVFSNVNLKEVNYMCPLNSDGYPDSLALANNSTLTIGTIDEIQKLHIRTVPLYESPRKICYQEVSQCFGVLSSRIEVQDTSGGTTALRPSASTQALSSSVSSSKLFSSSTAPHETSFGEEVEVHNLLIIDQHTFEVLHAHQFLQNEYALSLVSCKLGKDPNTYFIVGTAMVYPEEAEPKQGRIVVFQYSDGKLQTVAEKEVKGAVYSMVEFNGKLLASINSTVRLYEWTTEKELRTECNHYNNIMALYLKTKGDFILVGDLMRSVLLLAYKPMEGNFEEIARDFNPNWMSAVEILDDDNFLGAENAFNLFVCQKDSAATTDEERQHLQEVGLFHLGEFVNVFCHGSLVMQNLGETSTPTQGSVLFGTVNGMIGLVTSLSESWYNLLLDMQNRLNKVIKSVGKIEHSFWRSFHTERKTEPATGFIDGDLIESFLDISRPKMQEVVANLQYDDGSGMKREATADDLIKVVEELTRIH

What was measured:
[1] = target: DDB2-Flag (recombinant, subunit of purified UV-DDB) (UniProt Q92466); test: co-purification (Ni affinity, anti-FLAG affinity, SEC); His6-DDB1 and DDB2-Flag co-expressed in Sf9; His-Trap HP column, then anti-FLAG M2 affinity gel, then HiLoad 16/60 Superdex 200 in 50 mM HEPES pH 7.5, 200 mM KCl, 1 mM EDTA, 2 mM DTT, 10% glycerol
DDB2-mCherry = DDB2-mCherry (UniProt Q92466); test: FRET or BRET; single-molecule FRET on DNA in the C-trap; donor eGFP-DDB1 excited at 488 nm (50% power, 34 ms per frame), acceptor DDB2-mCherry; eGFP bleed-over of 9.0% subtracted

Substance | binding [1] | binding (DDB2-mCherry)
His6-DDB1 (recombinant, subunit of purified UV-DDB) (from UniProt Q16531 1-1140) | binds | 
eGFP-DDB1 (DNA damage-binding protein 1 with an N-terminal eGFP tag) (from UniProt Q16531 2-1140) |  | binds
